Measured values published in PubChem BioAssay AID328 (DTP/NCI, 2004).
The list does not hold the whole screen: it gathers tests that were run many times, whatever their T/C, doses with no T/C, and many T/C values between a quarter and a half above the control. Other doses and runs of a compound stand elsewhere. T/C: endpoint of the treated group in % of that of the vehicle group. Some doses have a count of surviving animals in place of a T/C: the source holds a T/C of zero for them, seemingly a mark for toxic or unscored doses. Some survivor counts are full or nearly so, which does not show that the dose was tolerated: survival well below the control is almost never listed, so the zero probably covers shortened survival too. Counts of survivors are from the toxicity check (mostly the fifth day) where no day follows; animals may have died later. Schedule codes are those of the source, taken here to give the interval after Q, in days (D) or hours (H), and the number of doses after X. Some doses were run more than once; the results are listed from low to high. For survival time, the PubChem record calls one and a half times the control and up active, and a quarter to a half above the control has no call in these data; cut-offs in other NCI protocols can differ.

System: BDF1 mice, P388 leukemia ip, median survival T/C
Assay: NCI In Vivo Anticancer Drug Screen. Data for tumor model P388 Leukemia (intraperitoneal) in B6D2F1 (BDF1) mice
Conditions: T/C endpoint: median survival time, higher T/C = longer survival
Summary of the method: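 In tumour-bearing mice, survival after compound treatment is set against the vehicle group and given as a quotient.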

[1] = dose: 25.0 mg/kg/injection, schedule: Q01DX009 (ip), vehicle: saline
[2] = dose: 300.0 mg/kg/injection, schedule: Q01DX009 (ip), vehicle: saline with Tween-80

SMILES: C/C(Cc1ccccc1)=N\O
- survivor count (dose: 400.0 mg/kg/injection, schedule: Q01DX009 (ip), vehicle: saline with Tween-80): 3 of 6

SMILES: Cn1cc(C=O)c2nccnc21
- survivor count (dose: 3.12 mg/kg/injection, schedule: Q01DX009 (ip), vehicle: saline): 6 of 6
- survivor count [1]: 6 of 6
- survivor count (dose: 50.0 mg/kg/injection, schedule: Q01DX009 (ip), vehicle: saline): 6 of 6
- survivor count (dose: 200.0 mg/kg/injection, schedule: Q01DX009 (ip), vehicle: saline with Tween-80): 3 of 6
- survivor count [2]: 0 of 6

SMILES: c1ccc(-c2cscc2-c2ccccc2)cc1
- survivor count [1]: 6 of 6
- survivor count (dose: 200.0 mg/kg/injection, schedule: Q04DX003 (ip), vehicle: saline): 6 of 6

SMILES: CC(=O)OCC(OC(C)=O)C(OC(C)=O)C(C#N)OC(C)=O (centres undefined)
- survivor count (dose: 200.0 mg/kg/injection, schedule: Q04DX003 (ip), vehicle: saline with Tween-80): 4 of 6

SMILES: COc1ccc(-c2cc(=O)c3cc(OC)c(OC)cc3o2)cc1OC
- survivor count (dose: 7.5 mg/kg/injection, schedule: Q01DX009 (ip), vehicle: saline): 6 of 6

SMILES: CCOC(C)C(/C=N/NC(N)=S)=NNC(N)=S (centres undefined)
- T/C (dose: 100.0 mg/kg/injection, schedule: Q01DX009 (ip), vehicle: Klucel (hydroxypropylcellulose) (HPC)): 127 and 135 % of control
- T/C (dose: 400.0 mg/kg/injection, schedule: Q01DX009 (ip), vehicle: Klucel (hydroxypropylcellulose) (HPC)): 127 % of control
- survivor count (dose: 400.0 mg/kg/injection, schedule: Q04DX003 (ip), vehicle: saline with Tween-80): 0 of 6

SMILES: COc1ccc(N=NNc2ccc(OC)cc2)cc1
- T/C (dose: 16.5 mg/kg/injection, schedule: Q01DX009 (ip), vehicle: saline with Tween-80): 129 and 145 % of control
- T/C (dose: 25.0 mg/kg/injection, schedule: Q01DX009 (ip), vehicle: saline with Tween-80): 140 % of control

SMILES: O=c1c(Br)cccc(CN2CCOCC2)c1O
- survivor count (dose: 100.0 mg/kg/injection, schedule: Q04DX002 (ip), vehicle: saline with Tween-80): 6 of 6
- survivor count (dose: 200.0 mg/kg/injection, schedule: Q04DX002 (ip), vehicle: saline with Tween-80): 3 of 6

SMILES: C(=C/c1nc2ccccc2o1)/c1ccc2c(c1)OCO2
- T/C (dose: 400.0 mg/kg/injection, schedule: Q01DX011 (ip), vehicle: Klucel (hydroxypropylcellulose) (HPC)): 125 % of control

SMILES: O=C1C=C(N2CC2)C(=O)C(N2CC2)=C1N1CC1
- survivor count (dose: 0.04 mg/kg/injection, schedule: Q01DX009 (ip), vehicle: saline): 5 of 6
- survivor count (dose: 0.08 mg/kg/injection, schedule: Q01DX009 (ip), vehicle: saline): 1 of 6 and 6 of 6
- survivor count (dose: 0.16 mg/kg/injection, schedule: Q01DX009 (ip), vehicle: saline): 2 of 6 and 4 of 6
- survivor count (dose: 0.32 mg/kg/injection, schedule: Q01DX009 (ip), vehicle: saline): 0 of 6 and 1 of 6

SMILES: CCOC(=O)CCOc1ccccc1N(CCCl)CCCl
- T/C (dose: 3.0 mg/kg/injection, schedule: Q01DX009 (ip), vehicle: saline): 126 % of control
- T/C (dose: 6.0 mg/kg/injection, schedule: Q01DX009 (ip), vehicle: saline): 134 % of control
- T/C (dose: 6.25 mg/kg/injection, schedule: Q04DX003 (ip), vehicle: other): 145 % of control
- T/C (dose: 8.0 mg/kg/injection, schedule: Q04DX003 (ip), vehicle: saline): 126 % of control
- T/C (dose: 18.0 mg/kg/injection, schedule: Q04DX003 (ip), vehicle: saline): 147 % of control
- survivor count (dose: 37.5 mg/kg/injection, schedule: Q04DX003 (ip), vehicle: other): 1 of 6

SMILES: N#C/C(=C\c1ccc(O)cc1)c1ccc([N+](=O)[O-])cc1
- survivor count (dose: 200.0 mg/kg/injection, schedule: Q01DX001 (ip), vehicle: saline with Tween-80): 1 of 6
- survivor count (dose: 400.0 mg/kg/injection, schedule: Q01DX001 (ip), vehicle: saline with Tween-80): 0 of 6

SMILES: Cc1cc(N(CCCl)CCCl)ccc1C=Nc1ccccc1C(=O)O
- T/C (dose: 50.0 mg/kg/injection, schedule: Q01DX009 (ip), vehicle: saline with Tween-80): 128 % of control
- survivor count [2]: 5 of 6

SMILES: ClC1=C(Cl)C(Cl)(C2(Cl)C(Cl)=C(Cl)C(Cl)=C2Cl)C(Cl)=C1Cl
- survivor count (dose: 200.0 mg/kg/injection, schedule: Q01DX009 (ip), vehicle: gum acacia): 3 of 6
- survivor count (dose: 400.0 mg/kg/injection, schedule: Q01DX009 (ip), vehicle: gum acacia): 3 of 6
